This passage reports survivor count and T/C results from PubChem BioAssay AID330 (DTP/NCI, 2004).

In the experiment the test system is P388 leukemia ip, CD2F1 mice, survival T/C. The experiment in a line: NCI In Vivo Anticancer Drug Screen. Data for tumor model P388 Leukemia (intraperitoneal) in CD2F1 (CDF1) mice. The conditions noted are these: T/C endpoint: median survival time, higher T/C = longer survival.
[1] abbreviates: dose: 240.0 mg/kg/injection, schedule: Q01DX005 (ip), vehicle: Klucel (hydroxypropylcellulose) (HPC).
Where [2] appears, read: dose: 200.0 mg/kg/injection, schedule: Q01DX009 (ip), vehicle: saline with Tween-80.
[3] abbreviates: dose: 100.0 mg/kg/injection, schedule: Q01DX009 (ip), vehicle: water.
[4] abbreviates: dose: 50.0 mg/kg/injection, schedule: Q01DX005 (ip), vehicle: saline with Tween-80.
Setting [5] is: dose: 100.0 mg/kg/injection, schedule: Q01DX005 (ip), vehicle: saline with Tween-80.
Setting [6] is: dose: 200.0 mg/kg/injection, schedule: Q01DX005 (ip), vehicle: saline with Tween-80.
Setting [7] is: dose: 240.0 mg/kg/injection, schedule: Q01DX005 (ip), vehicle: saline with Tween-80.

Molecules are shown by their SMILES. The list shows only some results of the screen, not a fair sample: it gathers tests that were run many times, whatever their T/C, doses with no T/C, and many T/C values between a quarter and a half above the control. Other doses and runs of a compound stand elsewhere. T/C gives the treated animals as a percentage of the vehicle group. Some doses have a count of surviving animals in place of a T/C: the source files T/C as zero there, which appears to mark a toxic dose or a test without result, not a measured value. Some survivor counts are full or nearly so, which does not show that the dose was tolerated: survival well below the control is almost never listed, so the zero probably covers shortened survival too. Counts of survivors are from the toxicity check (mostly the fifth day) where no day follows; animals may have died later. Schedules are NCI's codes, taken here to give the interval after Q, in days (D) or hours (H), and the number of doses after X. Some entries were tested several times; their values stand side by side, smallest first. Where survival is the endpoint, this PubChem deposit counts one and a half times the control or more as active, and values a quarter to a half above the control carry no call in these data; other NCI protocols may use other cut-offs.

On to `CC1=CC(=O)C=C(C)C1=O`, for which the survivor count by setting is: (dose: 12.5 mg/kg/injection, schedule: Q04DX003 (ip), vehicle: saline + alcohol) 3 of 6; (dose: 25.0 mg/kg/injection, schedule: Q04DX003 (ip), vehicle: saline + alcohol) 0 of 6; (dose: 50.0 mg/kg/injection, schedule: Q04DX003 (ip), vehicle: saline + alcohol) 0 of 6; (dose: 100.0 mg/kg/injection, schedule: Q04DX003 (ip), vehicle: saline + alcohol) 0 of 6; (dose: 200.0 mg/kg/injection, schedule: Q04DX003 (ip), vehicle: saline + alcohol) 0 of 6; (dose: 400.0 mg/kg/injection, schedule: Q04DX003 (ip), vehicle: saline + alcohol) 0 of 6.
As for `C[N+](C)(C)CCBr`, the survivor count runs as follows: (dose: 50.0 mg/kg/injection, schedule: Q01DX009 (ip), vehicle: saline) 0 of 6; (dose: 50.0 mg/kg/injection, schedule: Q04DX003 (ip), vehicle: saline) 5 of 6.
With `OC1CN(Cc2ccccc2)C[C@@H]1O` (some centres not stated), where the note is “dose: 240.0 mg/kg/injection, schedule: Q01DX005 (ip), vehicle: saline”, the survivor count is reported as 3 of 6.
In the case of `CCC1=C(C)CCN(C)C1Cc1ccc(OC)cc1` (configuration not stated), the survivor count is, setting by setting: (dose: 120.0 mg/kg/injection, schedule: Q01DX005 (ip), vehicle: Klucel (hydroxypropylcellulose) (HPC)) 0 of 6; under setting [1], 0 of 6.
`O=C1N(Cl)C2(c3ccccc3)N(Cl)C(=O)N(Cl)C2(c2ccccc2)N1Cl` (configuration not stated): the survivor count reads like this: (dose: 100.0 mg/kg/injection, schedule: Q04DX003 (ip), vehicle: Klucel (hydroxypropylcellulose) (HPC)) 1 of 6 and 2 of 6; (dose: 200.0 mg/kg/injection, schedule: Q04DX003 (ip), vehicle: Klucel (hydroxypropylcellulose) (HPC)) 1 of 6; (dose: 400.0 mg/kg/injection, schedule: Q04DX003 (ip), vehicle: Klucel (hydroxypropylcellulose) (HPC)) 1 of 6.
In the case of `CC(=Nc1c(C)noc1/C=C/c1ccccc1)NO`, the survivor count is given as 6 of 6 (dose: 200.0 mg/kg/injection, schedule: Q04DX002 (ip), vehicle: saline with Tween-80) and 6 of 6 (dose: 400.0 mg/kg/injection, schedule: Q04DX002 (ip), vehicle: saline with Tween-80).
With `C/C=C(\CCNCCCC)[Si](C)(C)C`, the survivor count (dose: 400.0 mg/kg/injection, schedule: Q04DX002 (ip), vehicle: saline) is 0 of 6.
For `CN(C)N=Nc1ccc(S(=O)(=O)Nc2ncccn2)cc1`, the T/C (dose: 17.5 mg/kg/injection, schedule: Q01DX009 (ip), vehicle: saline with Tween-80) is 132 % of control and the T/C (dose: 50.0 mg/kg/injection, schedule: Q04DX003 (ip), vehicle: saline with Tween-80) was 146 % of control.
For the molecule `C[C@]12CC[C@H](O)C[C@@H]1CC[C@@H]1[C@@H]2C(=O)C[C@]2(C)C3=CC(=O)O[C@H]3C[C@@H]12`, the survivor count is, setting by setting: (dose: 200.0 mg/kg/injection, schedule: Q04DX003 (ip), vehicle: saline with Tween-80) 5 of 6; (dose: 400.0 mg/kg/injection, schedule: Q04DX003 (ip), vehicle: saline with Tween-80) 0 of 6.
With `c1ccc2c3ccc(c2c1)CCc1ccc(c2ccccc12)CC3`, the survivor count (dose: 400.0 mg/kg/injection, schedule: Q04DX003 (ip), vehicle: other) is recorded as 6 of 6.
Take `CCCCCCCCCCCCCCCCCC[N+](C)(C)c1nc(Cl)nc(Cl)n1`: the survivor count is reported as 2 of 6 (dose: 100.0 mg/kg/injection, schedule: Q01DX009 (ip), vehicle: saline); 0 of 6 (dose: 200.0 mg/kg/injection, schedule: Q01DX009 (ip), vehicle: saline); 0 of 6 (dose: 400.0 mg/kg/injection, schedule: Q01DX009 (ip), vehicle: saline).
For `COc1ccc(-c2cc(C(=O)Nc3cc(C(F)(F)F)cc(C(F)(F)F)c3)c3ccccc3n2)cc1`, the survivor count (dose: 800.0 mg/kg/injection, schedule: Q01DX005 (ip), vehicle: DMSO) is 6 of 6.
For the molecule `CCCCOCN(COCCCC)C12CC3CC(CC(C3)C1)C2`, the T/C is, setting by setting: (dose: 100.0 mg/kg/injection, schedule: Q01DX009 (ip), vehicle: saline with Tween-80) 125 % of control; under setting [2], 132 % of control.
As for `CN(C)CSCN(C)C`, the survivor count under setting [2] was 2 of 6.
`CCn1c(-c2c(Cl)cc(O)cc2Cl)cc2c(Cl)cc(O)cc21`: the survivor count under setting [1] is given as 0 of 6.
For the molecule `C[C@@H]1C[C@@H]([C@H](O)CC2CC(=O)NC(=O)C2)C(=O)[C@@H](C)C1`, the T/C is, setting by setting: (dose: 25.0 mg/kg/injection, schedule: Q01DX009 (ip), vehicle: water) 127 % of control; (dose: 50.0 mg/kg/injection, schedule: Q01DX009 (ip), vehicle: water) 134 % of control; under setting [3], 132 % of control; (dose: 108.0 mg/kg/injection, schedule: Q04DX003 (ip), vehicle: Klucel (hydroxypropylcellulose) (HPC)) 137 % of control. The survivor count (dose: 60.0 mg/kg/injection, schedule: Q01DX009 (ip), vehicle: water) was 3 of 6; the survivor count under setting [3] was 2 of 6 and 3 of 6; the survivor count (dose: 140.0 mg/kg/injection, schedule: Q01DX009 (ip), vehicle: water) is 0 of 6; the survivor count (dose: 160.0 mg/kg/injection, schedule: Q01DX009 (ip), vehicle: water) is 3 of 6; the survivor count (dose: 180.0 mg/kg/injection, schedule: Q04DX003 (ip), vehicle: Klucel (hydroxypropylcellulose) (HPC)) was 8 of 8; the survivor count (dose: 200.0 mg/kg/injection, schedule: Q01DX009 (ip), vehicle: water) is 2 of 6 and 4 of 6.
With `CC(=O)NC1C([Se][As](C)C)OC(COC(C)=O)C(OC(C)=O)C1OC(C)=O` (configuration not stated), the T/C (dose: 25.0 mg/kg/injection, schedule: Q01DX009 (ip), vehicle: saline with Tween-80) was 127 % of control.
In the case of `C=CCc1ccc(OCCN(CC)CC)c(OC)c1`, the survivor count is, setting by setting: under setting [4], 2 of 6; under setting [5], 0 of 6; under setting [6], 0 of 6.
Consider `C(=N\NC1=NCCN1)/c1ccncc1`, for which, under “dose: 200.0 mg/kg/injection, schedule: Q01DX005 (ip), vehicle: saline”, the survivor count is 0 of 6.
For `COc1ccc2[nH]c(=O)c(C#N)c(C)c2c1`, the survivor count under setting [5] is given as 3 of 6 and the survivor count under setting [6] is recorded as 1 of 6.
Turning to `CCC[CH2][Sn]([Cl])([Cl])[CH2]CCC.c1ccc(-c2nnc(-c3ccccn3)nc2-c2ccccc2)cc1`, the survivor count under setting [1] was 2 of 6.
On to `c1ccc2c(c1)Cc1c-2nc2ccccc2c1N1CCOCC1`, for which the T/C under setting [6] is 125 % of control.
As to `OC(/C=C/c1ccccc1)Cc1nc2ccccc2[nH]1` (configuration not stated), under setting [7], the survivor count is 6 of 6.
As for `COc1cccc(CN2CCN(/N=C/c3c4c(O)c5c(O)c(C)c6c(c5c3O)C(=O)C(C)(O/C=C/C(OC)C(C)C(OC(C)=O)C(C)C(O)C(C)C(O)C(C)/C=C/C=C(C)C(=O)N4)O6)CC2)c1` (configuration not stated), under setting [2], the survivor count is 3 of 6.
As to `CC(=O)c1ccc(Nc2cc(C)nc(N)n2)cc1`, the survivor count by setting is: (dose: 120.0 mg/kg/injection, schedule: Q01DX005 (ip), vehicle: saline with Tween-80) 0 of 6; under setting [7], 0 of 6.
Consider `ClC1(Cl)C2CCCCC21` (configuration not stated), for which the survivor count under setting [2] was 0 of 6.
Turning to `Cc1cccc2cc3ccccc3c[n+]12`, the survivor count reads like this: (dose: 50.0 mg/kg/injection, schedule: Q01DX005 (ip), vehicle: saline + Tween-80 + alcohol) 4 of 6; under setting [4], 0 of 5; (dose: 100.0 mg/kg/injection, schedule: Q01DX005 (ip), vehicle: saline + Tween-80 + alcohol) 0 of 6; under setting [5], 0 of 5; (dose: 200.0 mg/kg/injection, schedule: Q01DX005 (ip), vehicle: saline + Tween-80 + alcohol) 0 of 6; under setting [6], 0 of 5.
Consider `CCn1c2ccccc2c2cc(N=Nc3ccnc4c(O)cccc34)ccc21`, for which the T/C (dose: 50.0 mg/kg/injection, schedule: Q01DX009 (ip), vehicle: saline with Tween-80) was 125 and 127 % of control. Under setting [2], the survivor count is 6 of 6.
